# Library compounds against nucleic acid targets

Data from the ROBIN nucleic acid binder screens, doi:10.1002/anie.202211358.

Targets (5′ to 3′):
PreQ1: PreQ1 riboswitch RNA pseudoknot, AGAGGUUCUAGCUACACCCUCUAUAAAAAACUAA. From B. subtilis. Hit rate about 0.7% of about 24,000 compounds.
TPP: TPP riboswitch RNA three-way junction, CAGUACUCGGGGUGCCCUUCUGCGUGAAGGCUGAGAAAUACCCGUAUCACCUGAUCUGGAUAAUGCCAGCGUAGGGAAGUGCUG. Hit rate about 0.7% of about 24,000 compounds.
SAM-II: SAM-II riboswitch RNA pseudoknot, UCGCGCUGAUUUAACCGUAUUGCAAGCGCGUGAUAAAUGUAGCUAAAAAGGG. Hit rate about 1% of about 21,000 compounds.

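Compounds were printed on reactive glass slides in duplicate spots, a dye-labelled oligonucleotide was laid over them, and the fluorescence left after washing was read. For the PreQ1, TPP and SAM-II riboswitches the laboratory earlier reported (doi:10.1038/s41467-019-09493-3) 1 µM RNA, 2 h, and a rule that included a mean Z-score above 3 (spot signal-to-noise against the whole library), a score well above that on a control array, and duplicate spots agreeing (coefficient of variation under 100). The data file gives only the calls; its cut-offs may differ, and compounds hitting several targets are kept. These are primary screening calls, not affinities; a compound without a hit may have attached poorly or may still bind in solution.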 “yes” means called a hit, “no” means screened and not called a hit. Compounds were drawn at random from those tested, without regard to their results. A target missing from an entry has no call listed here.

{"compound": "CCOC(=O)c1cnc2ccccc2c1NCCN1CCOCC1", "PreQ1": "no", "TPP": "no", "SAM-II": "no"}
{"compound": "CCCC(CCC)C(=O)[O-]", "PreQ1": "no", "TPP": "no", "SAM-II": "no"}
{"compound": "CCOC(=O)N1CCN(c2c(N)cccc2Cl)CC1", "PreQ1": "no", "TPP": "no", "SAM-II": "no"}
{"compound": "Clc1ccc(-n2cc(-c3ccccc3)c3c(NC4CC4)ncnc32)cc1", "PreQ1": "no", "TPP": "no"}
{"compound": "Cc1cccnc1CCn1cnc(-c2ccccc2)c1-c1ccc(C#CCO)cc1", "PreQ1": "no", "TPP": "no", "SAM-II": "no"}
{"compound": "CC(C)c1cc(C(C)C)n2nc(N)nc2n1", "PreQ1": "no", "TPP": "no", "SAM-II": "no"}
{"compound": "CNCC(=O)N1C[C@H]2OC(=O)N(CCCc3ccc(OC)cc3)[C@H]2C1", "PreQ1": "no", "TPP": "no", "SAM-II": "no"}
{"compound": "Nc1c(N2CCCC2)c2ccccc2oc1=O", "PreQ1": "no", "TPP": "no", "SAM-II": "no"}
{"compound": "CC1CCc2nc3sc4c(c3c(N)c2C1)CCCC4", "stereo": "stereo not shown", "PreQ1": "no", "TPP": "no", "SAM-II": "no"}
{"compound": "CCn1c(-c2nonc2N)nc2c(C#CC(C)(C)O)ncc(OC[C@H]3CCCNC3)c21", "PreQ1": "no", "TPP": "no", "SAM-II": "no"}
{"compound": "CCCNc1cc(C)nc2nc(-c3cccc(C)c3)nn12", "PreQ1": "no", "TPP": "no"}
{"compound": "O=C(CC1COCCN1)N1CCC(Cc2ccc(F)cc2)CC1", "stereo": "stereo not shown", "PreQ1": "no", "TPP": "no", "SAM-II": "no"}
{"compound": "c1ccc(-c2nnc3nc(N4CCCCC4)nc(N4CCCCC4)n23)cc1", "PreQ1": "no", "TPP": "no", "SAM-II": "no"}
{"compound": "CN1CCN([C@H]2CCN(C(=O)COc3ccc(F)cc3)C[C@H]2CCCO)CC1", "PreQ1": "no", "TPP": "no", "SAM-II": "no"}
{"compound": "Cn1c(=O)c2c(nc(N3CCOCC3)n2CCN)n(C)c1=O", "PreQ1": "no", "TPP": "no", "SAM-II": "no"}
{"compound": "CN(C)[C@@H]1C(=O)C(C(N)=O)=C(O)[C@@]2(O)C(=O)C3=C(O)c4c(O)cccc4[C@@](C)(O)[C@H]3C[C@@H]12", "PreQ1": "no", "TPP": "no", "SAM-II": "no"}
{"compound": "CC(c1nccs1)N(C)Cc1nnc(CC2CCNCC2)n1C", "stereo": "stereo not shown", "PreQ1": "no", "TPP": "no", "SAM-II": "no"}
{"compound": "CN1CCN(C(=O)c2ccc(-c3cc[nH]n3)cc2)CC1CCO", "stereo": "stereo not shown", "PreQ1": "no", "TPP": "no", "SAM-II": "no"}
{"compound": "CC(=O)c1c(N)nc(C)nc1-c1ccccc1", "PreQ1": "no", "TPP": "no", "SAM-II": "no"}
{"compound": "Fc1ccc(CNc2ccc(Cl)nn2)cc1", "PreQ1": "no", "TPP": "no", "SAM-II": "no"}
{"compound": "CC1=C(C#N)C(c2ccoc2)C(C(=O)OCc2ccccc2)=C(N)S1", "stereo": "stereo not shown", "PreQ1": "no", "TPP": "no", "SAM-II": "no"}
{"compound": "CC(=O)c1sc2nc3c(c(-c4cccnc4)c2c1N)CCCC3", "PreQ1": "no", "TPP": "no", "SAM-II": "no"}
{"compound": "COc1cc(C(C)=O)ccc1OCC(O)CN1CCN(c2ccccc2F)CC1", "stereo": "stereo not shown", "PreQ1": "no", "TPP": "no", "SAM-II": "no"}
{"compound": "Cc1nc(C)c(CNC(=O)c2cccc(C3CCCNC3)c2)s1", "stereo": "stereo not shown", "PreQ1": "no", "TPP": "no", "SAM-II": "no"}
{"compound": "COc1c(CC2CC(CO)=NO2)cc2c(c1OC)OCO2", "stereo": "stereo not shown", "PreQ1": "no", "TPP": "no", "SAM-II": "no"}
{"compound": "Cc1ccc(NCc2nnc(-c3ccccc3)o2)c(C)c1", "PreQ1": "no", "TPP": "no"}

Once more, the final 2:

{"compound": "COc1c(CC2CC(CO)=NO2)cc2c(c1OC)OCO2", "stereo": "stereo not shown", "PreQ1": "no", "TPP": "no", "SAM-II": "no"}
{"compound": "Cc1ccc(NCc2nnc(-c3ccccc3)o2)c(C)c1", "PreQ1": "no", "TPP": "no"}